Laboratory results taken from PubChem BioAssay (NCATS).
Several values for one entry are separate records, joined by “and”; a condition that tells them apart may be missing. Identical values can stand only once. This is one part of the list. Shown are side measurements of this screen, not its main read-out; they come without a call. Compounds called inactive in the main read-out are mostly missing here. Words in brackets tell the shape of the fitted curve; partial curves, single points and poor fits give uncertain potencies.

Assay: qHTS assay for small molecule antagonists of peroxisome proliferator-activated receptor gamma signaling (AID 588537)
Conditions: HEK293 PPARg-UAS-bla, beta-lactamase ratio, antagonist mode; measured here: W460 blue channel
Procedure, shortened: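 Antagonist mode, beta-lactamase reporter in HEK293; charcoal/dextran FBS 1%; 3000 cells/well, 37 C 6-6.5 h; cpd titration + rosiglitazone 50 nM final, 16 h 37 C; CCF4, 2 h RT; 460/530 nm; Hill fit → IC50, efficacy.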
In the case of `O=C(Oc1ccccc1)c1ccccc1O`, the AC50 is reported as 70.8 µM [rising, single point]. In the case of `C=C[C@H]1CN2CC[C@H]1C[C@@H]2[C@@H](O)c1ccnc2ccc(OC)cc12`, the AC50 is reported as 44.7 µM [rising, partial curve]. In the case of `CC(C)=CCC[C@@H](C)[C@H]1CC[C@@]2(C)C3=C(CC[C@]12C)[C@@]1(C)CC[C@H](O)C(C)(C)[C@@H]1CC3`, the AC50 is reported as 0.0158 µM [falling, full curve, poor fit]. In the case of `CC(O)COC(C)(C)C` (stereo not given), the AC50 is reported as 50.1 µM [rising, single point]. In the case of `Cc1c(N)cccc1Cl`, the AC50 is reported as 50.1 µM [rising, single point]. For `C[C@@H]1O[C@@H](O[C@@H]2[C@@H](O)[C@H](OCCc3ccc(O)c(O)c3)O[C@H](CO[C@@H]3O[C@H](CO)[C@@H](O)[C@H](O)[C@H]3O)[C@H]2OC(=O)/C=C/c2ccc(O)c(O)c2)[C@H](O)[C@H](O)[C@H]1O`, the AC50 was 50.1 µM [rising, single point]. For `O=c1n(CCO)c(=O)n(CCO)c(=O)n1CCO`, the AC50 was 0.02 µM [falling, full curve, poor fit]. With `CC1(C)S[C@@H]2[C@H](NC(=O)[C@H](N)c3ccccc3)C(=O)N2[C@H]1C(=O)O` the AC50 was 50.1 µM [falling, single point]. With `Nc1nc(N)nc(-c2ccccc2)n1` the AC50 was 0.0355 µM [falling, full curve, poor fit]. For `C=C(C)[C@H]1CC=C(C)C(=O)C1`, the AC50 was 70.8 µM [rising, single point] and 316 nM [rising, full curve, poor fit].
